Reference: ChEMBL document CHEMBL1649534, “A balancing act: efflux/influx in mycobacterial drug resistance” (2009)

Test system: Mycobacterium tuberculosis
Experiment: Antibacterial activity against drug-resistant Mycobacterium tuberculosis clinical isolates
Assay type: functional

NNC(=O)c1ccncc1 [ISONIAZID]
MIC: > 256 µg/mL
